Source: US9963703B2, “Compositions and methods for treating pancreatic cancer” (Autotelic LLC, priority 2016, dated 2018)
At least one compound was matched to its structure with a doubt left.

Experiments:
Type in all cases: cell-based
A-172 glioma cells [1] = experiment: Migration of A-172 glioma cells; conditions: TMZ monotherapy, 64/160/400 μM
Method: (§1) A-172 glioma cells were treated with a combination of AP12009 (trabedersen) 0 to 10 μM) and different concentrations of TMZ (temozolomide) for 7 days (treatment schedule 2*2/1*3 d).

A-172 glioma cells [2] = experiment: Proliferation of A-172 glioma cells; conditions: monotherapy, 7 days
Method: as §1
(§2) In summary there is no clear beneficial effect in combining AP12009 with TMZ in A-172 cells.

TGFβ2 = TGFβ2 secretion in A-172 glioma cells; conditions: monotherapy, 7 days
Method: as §1, §2

Compound: Cn1nnc2c(C(N)=O)ncn2c1=O [TMZ, temozolomide, reference compound]
- effect on migration of A-172 cells (A-172 glioma cells [1]): dose-dependently reduced migration
- effect on cell proliferation (A-172 glioma cells [2]): dose dependently reduced
- effect on TGFβ2 (TGFβ2): dose dependently reduced
